Drawing on patent publication US5190922A (priority 1991, dated 1993), this text covers step yield and difficulty met for 20 substances.

One data set is described as follows: general procedure: Boc solid-phase peptide synthesis; Boc-DArg(N-guanidino-Tos)-Merrifield resin; EDC/HOBT or mixed anhydride (IBCF/NMM) for solution couplings. To be noted: coupling step.
Consider “(N-Methyl)Phenylalanyl-Lysyl-Prolyl-{(2R)-2-Amino-3-cyclohexylpropanoyl}-Phenylalanyl-N-(4-Guanidinobutyl)amide”, for which the step yield was found to be 12% yield.

As to “(N-Methyl)Phenylalanyl-Lysyl-Prolyl-{(2R)-2-Amino-3-cyclohexylpropanoyl}-Phenylalanyl-N-{(2R/S)-2Phenylbutyl}amide”, the step yield was found to be 70%.

“(N-Methyl)Phenylalanyl-Lysyl-Prolyl-{(2R)-2-Amino-3-cyclohexylpropanoyl}-Phenylalanyl-NH2” yielded a step yield of 74%.

For the substance “(N-Methyl)Phenylalanyl-Lysyl-Prolyl-{(2R)-2-Amino-3-cyclohexylpropanoyl}-{(2S)-2-Amino-3-cyclohexylpropanoyl}-N-(4-Aminobutyl)amide”, the step yield came out at 63.5%.

In turn, “(N-Methyl)Phenylalanyl-Lysyl-Prolyl-{(2R)-2-Amino-3-cyclohexylpropanoyl}-{(S)-(-)-2-Amino-3-phenyl-1-propanol}” displayed a step yield of 63%.

On to “(N-Methyl)Phenylalanyl-Lysyl-prolyl-{(2R/S)-2-Amino-3-cyclohexylpropanoyl}- {(2R/S)-2-Amino-3-cyclohexyl-2-(5-guanidinopentyl)propanoyl}-N-(2-Phenethyl)amide”, for which the difficulty met entry was “During the peptide coupling, the (2R)-2-Amino-3-cyclohexylpropanoyl residue racemized”.

Substance “Cbz-Lysyl(N-epsilon-Boc)-Prolyl-{(2R)-2-Amino-3-cyclohexylpropanoyl}-{(2S)- 2-Amino-3-cyclohexylpropanoyl}-OEt” showed a step yield of 97%.

For the substance “N-Boc-(N-Methyl)Phenylalanyl-Lysyl(N-epsilon-Boc)-Prolyl{(2R)-2-Amino-3-cyclohexylpropanoyl}-{(2S)-2-Amino-3-cyclohexylpropanoyl}-OEt”, the step yield was 96%.

Still in this data set, the particulars now being: coupling step, acetate salt.
“(N-Methyl)Phenylalanyl-Lysyl-Prolyl-{(2R)-2-Amino-3-cyclohexylpropanoyl}-{(2S)-2-Amino-3-cyclohexylpropanoyl}-N-(4-Guanidinobutyl)amide”: the step yield stood at 38%.

Still in this data set, the particulars now being: late stage modification step.
On to “(N-Methyl)Phenylalanyl-Lysyl-Prolyl-{(2R)-2-Amino-3-cyclohexylpropanoyl}-N- (4-Aminobutyl)-N-(2-Phenethyl)amide”, for which the step yield worked out at 37%.

Take “(N-Methyl)Phenylalanyl-Lysyl-Prolyl-{(2R)-2-Amino-3-cyclohexylpropanoyl}-N- (4-Guanidinobutyl)-N-(2-Phenethyl)amide”: the step yield was 25%.

Regarding “(N-Methyl)Phenylalanyl-Lysyl-Prolyl-{(2R)-2-Amino-3-cyclohexylpropanoyl}-Phenylalanyl Methyl ester”, the step yield stood at 55% yield.

“(N-Methyl)Phenylalanyl-Lysyl-Prolyl-{(2R)-2-Amino-3-cyclohexylpropanoyl}-Phenylalanyl-Anilide” showed a step yield of 57%.

Regarding “(N-Methyl)Phenylalanyl-Lysyl-Prolyl-{(2R)-2-Amino-3-cyclohexylpropanoyl}-Phenylalanyl-N-(2-Amidinoethyl)amide”, the step yield came to 18%.

“(N-Methyl)Phenylalanyl-Lysyl-Prolyl-{(2R)-2-Amino-3-cyclohexylpropanoyl}-Phenylalanyl-N-(3-Cyanoethyl)amide” came in with a step yield of 43%.

“(N-Methyl)Phenylalanyl-Lysyl-Prolyl-{(2R)-2-Amino-3-cyclohexylpropanoyl}-Phenylalanyl-N-{(2-Cyclohexyl-2-methyl)propyl}amide” gave a step yield of 47%.

On to “N-Boc-(N-Methyl)Phenylalanyl-Lysyl(N-epsilon-Boc)-Prolyl{(2R)-2-Amino-3-cyclohexylpropanoyl}-OH”, for which the step yield came to 83%.

“N-Boc-(N-Methyl)Phenylalanyl-Lysyl(N-epsilon-Boc)-Prolyl{(2R)-2-Amino-3-cyclohexylpropanoyl}-Phenylalanyl-OH” showed a step yield of 99%.

With “N-Boc-(N-Methyl)Phenylalanyl-Lysyl(N-epsilon-Boc)-Prolyl{(2R)-2-Amino-3-cyclohexylpropanoyl}-{(2S)-2-Amino-3-cyclohexylpropanoyl}-OH”, the step yield is recorded as 95%.

The same data set, now with this note: late stage modification step, overall.
Take “(N-Methyl)Phenylalanyl-Lysyl-Prolyl-{(2R)-2-Amino-3-cyclohexylpropanoyl}-{(2S)-2-Amino-3-cyclohexylpropanoyl}-N-(5-Guanidinopentyl)amide”: the step yield was 21%.
